Test results reported in paper PMC5102030.
No constants are given. Whether binding was seen depends on the method and setting. Binding seen in cells or lysates may run through a third protein. Some binding calls cover weakened binding; strength is not graded here.

The chains behind the UniProt entries cited, without tags or fusion partners.
UniProt Q7Z6Z7: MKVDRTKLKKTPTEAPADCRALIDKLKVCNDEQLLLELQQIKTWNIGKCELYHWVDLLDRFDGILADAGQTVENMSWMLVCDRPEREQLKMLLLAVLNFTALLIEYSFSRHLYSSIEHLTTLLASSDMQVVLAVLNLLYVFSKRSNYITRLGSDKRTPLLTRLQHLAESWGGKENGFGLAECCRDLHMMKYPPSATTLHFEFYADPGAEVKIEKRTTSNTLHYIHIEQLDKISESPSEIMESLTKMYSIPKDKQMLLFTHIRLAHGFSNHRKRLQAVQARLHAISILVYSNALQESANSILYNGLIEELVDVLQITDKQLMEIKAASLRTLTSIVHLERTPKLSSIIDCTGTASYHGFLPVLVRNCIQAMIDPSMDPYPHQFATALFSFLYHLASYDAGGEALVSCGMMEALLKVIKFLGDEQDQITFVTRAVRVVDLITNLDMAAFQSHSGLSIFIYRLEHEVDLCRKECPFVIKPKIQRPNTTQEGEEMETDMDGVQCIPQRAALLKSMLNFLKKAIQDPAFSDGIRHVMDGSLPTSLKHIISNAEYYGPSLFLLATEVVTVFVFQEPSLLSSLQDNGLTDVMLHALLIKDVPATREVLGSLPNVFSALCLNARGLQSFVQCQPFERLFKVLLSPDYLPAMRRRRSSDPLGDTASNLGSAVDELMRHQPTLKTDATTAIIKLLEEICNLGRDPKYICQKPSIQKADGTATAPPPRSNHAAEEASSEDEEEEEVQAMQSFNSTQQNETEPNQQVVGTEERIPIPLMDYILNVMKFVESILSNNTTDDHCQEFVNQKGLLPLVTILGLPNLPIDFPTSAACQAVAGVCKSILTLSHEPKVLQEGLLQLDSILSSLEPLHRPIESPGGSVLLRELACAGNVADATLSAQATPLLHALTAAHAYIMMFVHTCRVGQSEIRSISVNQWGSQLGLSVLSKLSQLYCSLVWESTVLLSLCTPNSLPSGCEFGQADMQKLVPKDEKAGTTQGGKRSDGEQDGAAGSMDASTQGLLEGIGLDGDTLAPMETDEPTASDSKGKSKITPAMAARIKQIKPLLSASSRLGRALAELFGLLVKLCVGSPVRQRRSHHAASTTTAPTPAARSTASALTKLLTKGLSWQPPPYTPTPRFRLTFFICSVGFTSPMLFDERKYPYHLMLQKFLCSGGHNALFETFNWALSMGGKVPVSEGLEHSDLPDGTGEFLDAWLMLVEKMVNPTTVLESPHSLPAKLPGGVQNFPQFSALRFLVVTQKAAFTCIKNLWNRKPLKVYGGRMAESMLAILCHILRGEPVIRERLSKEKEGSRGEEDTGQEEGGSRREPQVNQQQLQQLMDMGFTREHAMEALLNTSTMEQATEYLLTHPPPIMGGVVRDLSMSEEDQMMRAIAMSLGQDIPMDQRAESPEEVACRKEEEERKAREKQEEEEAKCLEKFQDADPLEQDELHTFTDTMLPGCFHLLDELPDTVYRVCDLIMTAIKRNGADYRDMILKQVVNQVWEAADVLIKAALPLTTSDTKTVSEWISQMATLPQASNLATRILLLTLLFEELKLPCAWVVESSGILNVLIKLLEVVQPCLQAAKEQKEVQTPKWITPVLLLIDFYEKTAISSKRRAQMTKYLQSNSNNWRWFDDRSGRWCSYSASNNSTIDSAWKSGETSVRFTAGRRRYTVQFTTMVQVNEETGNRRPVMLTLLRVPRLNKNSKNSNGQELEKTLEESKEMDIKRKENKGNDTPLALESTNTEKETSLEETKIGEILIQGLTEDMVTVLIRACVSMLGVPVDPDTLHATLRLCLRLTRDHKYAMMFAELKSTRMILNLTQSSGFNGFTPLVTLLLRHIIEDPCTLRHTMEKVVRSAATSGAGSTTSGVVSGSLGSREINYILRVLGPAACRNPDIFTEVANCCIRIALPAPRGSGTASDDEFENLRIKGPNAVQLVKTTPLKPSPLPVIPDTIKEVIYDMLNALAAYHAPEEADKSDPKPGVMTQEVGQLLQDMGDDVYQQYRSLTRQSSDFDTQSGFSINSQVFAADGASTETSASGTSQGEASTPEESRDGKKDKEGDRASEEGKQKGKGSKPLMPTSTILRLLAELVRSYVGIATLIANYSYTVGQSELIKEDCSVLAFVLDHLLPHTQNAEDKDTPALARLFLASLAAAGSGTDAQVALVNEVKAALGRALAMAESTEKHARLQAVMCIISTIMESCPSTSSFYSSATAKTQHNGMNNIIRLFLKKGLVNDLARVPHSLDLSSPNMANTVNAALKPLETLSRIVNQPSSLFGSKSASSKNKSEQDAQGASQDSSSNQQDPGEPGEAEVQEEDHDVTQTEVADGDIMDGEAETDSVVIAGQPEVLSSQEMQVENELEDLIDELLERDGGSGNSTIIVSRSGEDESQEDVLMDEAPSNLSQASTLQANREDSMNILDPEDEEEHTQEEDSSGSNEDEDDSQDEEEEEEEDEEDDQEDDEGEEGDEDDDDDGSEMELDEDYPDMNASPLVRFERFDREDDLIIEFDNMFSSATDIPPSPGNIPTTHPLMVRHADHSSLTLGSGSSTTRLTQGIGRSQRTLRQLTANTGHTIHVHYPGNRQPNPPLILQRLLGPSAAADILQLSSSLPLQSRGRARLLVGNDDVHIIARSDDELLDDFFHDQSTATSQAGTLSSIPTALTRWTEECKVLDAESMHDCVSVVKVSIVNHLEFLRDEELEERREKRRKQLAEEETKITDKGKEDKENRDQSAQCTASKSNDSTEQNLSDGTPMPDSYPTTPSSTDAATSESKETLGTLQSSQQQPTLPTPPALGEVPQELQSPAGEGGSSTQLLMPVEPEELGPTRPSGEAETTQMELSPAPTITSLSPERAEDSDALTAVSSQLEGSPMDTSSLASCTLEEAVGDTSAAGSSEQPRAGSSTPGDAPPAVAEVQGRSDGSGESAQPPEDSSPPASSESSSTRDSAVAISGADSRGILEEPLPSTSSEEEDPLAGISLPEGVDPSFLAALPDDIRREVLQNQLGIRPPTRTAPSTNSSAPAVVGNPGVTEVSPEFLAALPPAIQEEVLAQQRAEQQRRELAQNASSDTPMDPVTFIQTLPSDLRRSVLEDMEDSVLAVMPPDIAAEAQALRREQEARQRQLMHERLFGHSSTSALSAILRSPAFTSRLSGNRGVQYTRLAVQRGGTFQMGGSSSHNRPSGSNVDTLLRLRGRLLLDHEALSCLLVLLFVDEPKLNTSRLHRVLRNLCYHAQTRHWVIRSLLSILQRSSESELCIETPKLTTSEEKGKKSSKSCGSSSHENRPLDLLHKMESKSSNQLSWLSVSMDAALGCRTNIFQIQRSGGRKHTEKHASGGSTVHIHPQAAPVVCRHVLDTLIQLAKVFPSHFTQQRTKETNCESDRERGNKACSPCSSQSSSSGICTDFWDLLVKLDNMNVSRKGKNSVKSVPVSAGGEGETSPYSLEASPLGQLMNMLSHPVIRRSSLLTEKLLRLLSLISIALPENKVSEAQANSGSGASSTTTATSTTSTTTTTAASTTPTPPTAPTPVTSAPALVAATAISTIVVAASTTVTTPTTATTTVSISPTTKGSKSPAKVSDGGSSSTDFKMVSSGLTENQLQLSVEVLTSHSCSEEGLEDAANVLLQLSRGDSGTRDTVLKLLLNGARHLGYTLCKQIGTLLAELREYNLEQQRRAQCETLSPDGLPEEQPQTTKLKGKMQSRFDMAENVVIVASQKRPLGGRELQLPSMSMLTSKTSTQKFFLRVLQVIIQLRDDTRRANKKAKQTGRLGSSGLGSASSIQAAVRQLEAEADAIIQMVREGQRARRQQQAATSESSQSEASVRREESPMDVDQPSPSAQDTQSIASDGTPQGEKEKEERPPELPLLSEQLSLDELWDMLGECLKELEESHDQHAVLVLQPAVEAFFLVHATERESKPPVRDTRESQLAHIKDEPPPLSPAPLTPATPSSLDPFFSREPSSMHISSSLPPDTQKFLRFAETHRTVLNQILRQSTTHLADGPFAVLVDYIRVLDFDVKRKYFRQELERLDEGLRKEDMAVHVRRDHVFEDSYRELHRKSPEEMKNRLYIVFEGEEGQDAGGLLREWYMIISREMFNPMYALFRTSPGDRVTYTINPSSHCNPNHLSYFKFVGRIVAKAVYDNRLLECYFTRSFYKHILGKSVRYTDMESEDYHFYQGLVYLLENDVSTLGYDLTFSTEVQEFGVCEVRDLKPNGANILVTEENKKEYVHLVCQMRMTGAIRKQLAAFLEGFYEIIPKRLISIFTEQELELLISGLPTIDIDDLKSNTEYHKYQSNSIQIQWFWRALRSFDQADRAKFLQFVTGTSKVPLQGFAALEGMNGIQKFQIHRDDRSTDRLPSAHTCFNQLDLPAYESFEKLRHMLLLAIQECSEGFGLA

Molecular target: T1, Ubl4A (UniProt P11441)
T1 sequence: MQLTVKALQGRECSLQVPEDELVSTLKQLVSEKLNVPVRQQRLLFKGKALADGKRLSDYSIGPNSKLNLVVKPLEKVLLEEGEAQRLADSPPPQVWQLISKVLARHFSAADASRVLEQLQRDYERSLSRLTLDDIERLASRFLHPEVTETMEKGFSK
Test: co-IP; overexpressed substrate with endogenous HUWE1 (Supplementary Figure S5F); who was precipitated is not told

binding: binds
Substance: HUWE1 (HECT, UBA and WWE domain containing 1) (from UniProt Q7Z6Z7 1-4374) (enzyme)
